# Assay results as given in PubChem BioAssay AID2662 (National Center for Advancing Translational Sciences (NCATS), 2010).
# Protein sequences, listed by entry. Tags and fused reporters are not part of them.
# UniProt Q03164, whole entry, looked up: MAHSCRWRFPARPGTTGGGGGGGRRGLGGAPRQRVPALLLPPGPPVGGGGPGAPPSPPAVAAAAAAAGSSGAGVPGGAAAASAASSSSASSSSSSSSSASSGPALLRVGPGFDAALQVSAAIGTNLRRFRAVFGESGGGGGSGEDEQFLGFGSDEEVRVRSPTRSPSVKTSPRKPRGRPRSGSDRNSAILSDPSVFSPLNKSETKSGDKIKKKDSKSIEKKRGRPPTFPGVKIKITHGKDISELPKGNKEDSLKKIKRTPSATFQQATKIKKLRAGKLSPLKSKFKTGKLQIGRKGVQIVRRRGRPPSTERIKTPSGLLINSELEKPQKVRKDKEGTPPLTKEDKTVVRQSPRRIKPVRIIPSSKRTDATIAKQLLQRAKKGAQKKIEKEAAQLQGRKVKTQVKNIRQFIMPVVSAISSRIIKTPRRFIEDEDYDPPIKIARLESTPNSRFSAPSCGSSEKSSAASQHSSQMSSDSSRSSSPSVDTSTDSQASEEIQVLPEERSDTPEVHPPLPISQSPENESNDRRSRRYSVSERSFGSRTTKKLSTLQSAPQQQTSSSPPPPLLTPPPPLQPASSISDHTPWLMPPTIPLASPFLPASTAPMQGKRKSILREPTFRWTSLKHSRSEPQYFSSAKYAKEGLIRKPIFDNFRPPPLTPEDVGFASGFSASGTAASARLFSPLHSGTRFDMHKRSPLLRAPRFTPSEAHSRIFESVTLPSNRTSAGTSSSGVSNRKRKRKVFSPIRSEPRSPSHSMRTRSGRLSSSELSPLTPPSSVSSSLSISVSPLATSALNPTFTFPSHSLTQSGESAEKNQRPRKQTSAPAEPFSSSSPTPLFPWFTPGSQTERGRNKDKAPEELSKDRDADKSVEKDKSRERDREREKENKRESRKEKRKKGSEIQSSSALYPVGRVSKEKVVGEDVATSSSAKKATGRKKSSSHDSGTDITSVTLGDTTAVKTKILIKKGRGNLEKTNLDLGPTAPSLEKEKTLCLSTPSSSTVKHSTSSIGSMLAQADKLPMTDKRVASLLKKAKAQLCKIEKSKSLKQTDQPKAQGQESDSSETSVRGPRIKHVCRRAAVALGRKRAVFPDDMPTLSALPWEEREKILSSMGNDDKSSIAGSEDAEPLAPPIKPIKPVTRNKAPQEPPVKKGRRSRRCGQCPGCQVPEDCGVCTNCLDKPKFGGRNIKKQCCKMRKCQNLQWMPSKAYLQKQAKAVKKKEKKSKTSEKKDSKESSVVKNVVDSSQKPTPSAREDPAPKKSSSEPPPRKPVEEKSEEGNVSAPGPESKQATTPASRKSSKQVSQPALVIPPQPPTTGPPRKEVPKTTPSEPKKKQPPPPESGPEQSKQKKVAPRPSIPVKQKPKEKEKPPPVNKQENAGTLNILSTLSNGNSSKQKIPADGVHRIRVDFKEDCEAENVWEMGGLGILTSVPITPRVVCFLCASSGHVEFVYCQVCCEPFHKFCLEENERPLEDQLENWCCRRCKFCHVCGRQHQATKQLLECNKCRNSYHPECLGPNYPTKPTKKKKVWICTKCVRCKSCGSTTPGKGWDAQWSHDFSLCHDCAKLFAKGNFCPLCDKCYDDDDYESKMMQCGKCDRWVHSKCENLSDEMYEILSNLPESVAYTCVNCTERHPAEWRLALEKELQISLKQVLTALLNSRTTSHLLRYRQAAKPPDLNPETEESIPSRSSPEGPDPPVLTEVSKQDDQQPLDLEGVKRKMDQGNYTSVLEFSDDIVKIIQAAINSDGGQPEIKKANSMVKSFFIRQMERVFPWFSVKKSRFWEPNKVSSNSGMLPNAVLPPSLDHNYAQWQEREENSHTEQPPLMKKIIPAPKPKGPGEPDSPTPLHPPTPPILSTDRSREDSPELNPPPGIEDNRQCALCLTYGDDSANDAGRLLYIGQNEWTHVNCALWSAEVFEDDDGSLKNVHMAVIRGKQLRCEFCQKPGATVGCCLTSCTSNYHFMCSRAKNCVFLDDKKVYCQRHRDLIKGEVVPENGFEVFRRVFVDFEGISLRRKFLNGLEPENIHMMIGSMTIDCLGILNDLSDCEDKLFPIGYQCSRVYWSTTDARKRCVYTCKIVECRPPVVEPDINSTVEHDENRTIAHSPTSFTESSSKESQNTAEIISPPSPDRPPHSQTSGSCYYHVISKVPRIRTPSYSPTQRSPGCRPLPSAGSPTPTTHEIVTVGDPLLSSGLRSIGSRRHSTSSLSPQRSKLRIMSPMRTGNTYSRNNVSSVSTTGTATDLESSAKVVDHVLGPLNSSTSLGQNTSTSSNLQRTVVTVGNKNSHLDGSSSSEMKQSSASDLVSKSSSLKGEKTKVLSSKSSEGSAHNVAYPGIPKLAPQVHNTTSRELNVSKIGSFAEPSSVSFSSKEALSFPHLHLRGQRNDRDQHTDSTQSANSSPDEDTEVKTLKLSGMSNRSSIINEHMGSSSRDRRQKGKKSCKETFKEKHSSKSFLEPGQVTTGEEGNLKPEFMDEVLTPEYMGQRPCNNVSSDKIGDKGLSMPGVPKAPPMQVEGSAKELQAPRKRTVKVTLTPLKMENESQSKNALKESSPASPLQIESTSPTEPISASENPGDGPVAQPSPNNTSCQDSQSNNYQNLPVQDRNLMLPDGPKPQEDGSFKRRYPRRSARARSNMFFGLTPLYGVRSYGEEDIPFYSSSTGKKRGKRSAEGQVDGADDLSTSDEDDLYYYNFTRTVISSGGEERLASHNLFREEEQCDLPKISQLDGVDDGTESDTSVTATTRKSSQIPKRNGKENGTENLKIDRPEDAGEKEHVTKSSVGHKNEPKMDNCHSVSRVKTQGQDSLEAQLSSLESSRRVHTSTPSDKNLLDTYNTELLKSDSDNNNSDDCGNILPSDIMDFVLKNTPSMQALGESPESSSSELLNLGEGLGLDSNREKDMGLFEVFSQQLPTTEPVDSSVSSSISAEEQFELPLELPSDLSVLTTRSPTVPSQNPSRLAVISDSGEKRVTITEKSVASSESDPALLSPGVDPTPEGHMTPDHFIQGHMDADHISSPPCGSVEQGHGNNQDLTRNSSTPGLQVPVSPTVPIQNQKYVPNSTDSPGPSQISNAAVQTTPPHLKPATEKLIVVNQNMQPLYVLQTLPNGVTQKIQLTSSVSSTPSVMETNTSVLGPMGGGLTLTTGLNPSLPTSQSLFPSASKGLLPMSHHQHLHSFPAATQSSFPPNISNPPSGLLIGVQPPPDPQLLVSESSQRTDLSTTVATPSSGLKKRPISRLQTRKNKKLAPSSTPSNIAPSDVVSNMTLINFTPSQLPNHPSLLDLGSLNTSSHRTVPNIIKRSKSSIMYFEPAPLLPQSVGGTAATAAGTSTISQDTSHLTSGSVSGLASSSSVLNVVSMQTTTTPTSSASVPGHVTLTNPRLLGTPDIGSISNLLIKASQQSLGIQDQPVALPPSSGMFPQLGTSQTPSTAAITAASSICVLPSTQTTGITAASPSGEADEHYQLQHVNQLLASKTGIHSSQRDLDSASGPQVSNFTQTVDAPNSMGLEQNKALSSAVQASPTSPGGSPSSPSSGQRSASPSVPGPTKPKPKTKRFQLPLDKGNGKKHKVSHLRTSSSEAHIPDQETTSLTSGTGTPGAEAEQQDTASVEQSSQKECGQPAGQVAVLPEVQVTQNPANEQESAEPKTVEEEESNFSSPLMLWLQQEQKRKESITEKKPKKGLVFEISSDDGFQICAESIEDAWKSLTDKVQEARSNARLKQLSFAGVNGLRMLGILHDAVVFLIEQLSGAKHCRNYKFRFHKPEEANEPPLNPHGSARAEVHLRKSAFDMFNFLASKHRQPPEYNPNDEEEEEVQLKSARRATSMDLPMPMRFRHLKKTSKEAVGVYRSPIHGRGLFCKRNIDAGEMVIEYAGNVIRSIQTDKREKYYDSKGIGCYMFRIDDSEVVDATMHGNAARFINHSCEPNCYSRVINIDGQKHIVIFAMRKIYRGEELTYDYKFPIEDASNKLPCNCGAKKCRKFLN
# About 110 (0.038%) of roughly 290,000 compounds were called active. The shares of active, inactive and inconclusive entries below differ from those in the screen. The call rests on the fitted dose curve; in most records, active means well fitted inhibition curve with a large enough effect in the polarisation, with a control signal flat (not every such curve was filed as active); inconclusive means small, poorly fitted or top-dose-only effect, or effect the other way, or a change in a side signal; inactive means no such curve, though single readings can be large or run the other way; the % refers to the polarisation. Where the call is inconclusive, the potency comes from a doubtful curve fit. A note “side channel” means that the fit belongs to a control or component signal, not to the main read-out.
# Molecular target: Histone-lysine N-methyltransferase 2A (Homo sapiens) (UniProt Q03164)
# Assay: qHTS Fluorescence Polarization Assay for Inhibitors of MLL CXXC domain - DNA interaction
# Conditions: MLL-CXXC / FITC-HOXA9 DNA fluorescence polarization; series mostly up to 115 µM
# Outline: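 Fluorescence polarization: 7 uM MLL-CXXC (stock) preincubated 5 min with compounds, then 50 nM fluorescein-HOX-A9 DNA (stock) added; 30 min ambient. Buffer 50 mM Tris-HCl pH 7.5, 50 mM NaCl, 1 mM DTT, 0.05% BSA.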
# Potency means the concentration at half of the fitted maximal effect.
row,SMILES,Potency
1,CCOc1ncccc1C(=O)OCC(=O)NCCc1ccccc1,"inconclusive: 14.1 µM [fluorescent, single point]"
2,Cc1nc(-c2ccccc2)sc1C(=O)/C=C/c1ccccc1,"inconclusive: 89.1 µM [inhibitor, single point]"
3,CCCCN(CCCC)c1nc2ccccc2nc1C(C#N)C(=O)NCCCOC (centres undefined),"inconclusive: 20 µM [fluorescent, side channel, partial curve]"
4,O=C(O[C@@H]1OC2COC(=O)c3cc(O)c(O)c(O)c3-c3c(cc(O)c(O)c3O)C(=O)O[C@@H]([C@H]1O)[C@@H]2O)c1cc(O)c(O)c(O)c1,"inconclusive: 17.8 µM [inhibitor, partial curve]"
5,O=C(c1nc2n(n1)C(c1ccc(Cl)cc1)C=C(c1ccccc1)N2)N1CCOCC1 (centres undefined),"inconclusive: 35.5 µM [fluorescent, side channel, partial curve]"
6,Cc1cc(Cl)c(OCCOCCN2CCCCC2)c(Br)c1,"inconclusive: 14.1 µM [fluorescent, side channel, full curve]"
7,CC(C)CNC(=O)[C@H]1N2C(=O)c3ccccc3C2SC1(C)C (some centres undefined),"inconclusive: 89.1 µM [inhibitor, single point]"
8,O=C(Cn1nnc2ccccc21)OCC(=O)c1ccc(F)cc1,"inconclusive: 11.2 µM [quencher, side channel, full curve]"
9,Cc1ccc(C(C(=O)NC2CCCCC2)N(Cc2ccco2)C(=O)C2COc3ccccc3O2)o1 (centres undefined),inactive
10,CSc1ccccc1NC(=O)c1csc(C)c1,"inconclusive: 89.1 µM [quencher, side channel, single point]"
11,CN(C)S(=O)(=O)c1ccc2c(c1)/C(=C/c1cc3c([nH]1)CCCC3)C(=O)N2,"inconclusive: 14.1 µM [fluorescent, side channel, partial curve]"
12,Cc1cc(NC(=O)CCC(=O)N(c2ccccc2F)C(C(=O)NC2CCCC2)c2ccccc2)no1 (centres undefined),inactive
13,N#CC(C#N)=C1c2cc(S(N)(=O)=O)ccc2-c2ccc(S(N)(=O)=O)cc21,inactive
14,O=C1NC[C@H](Cc2ccc(O)cc2)N(CC2CCCCC2)C1=O,"inconclusive: 35.5 µM [inhibitor, single point]"
15,CCCCOc1ccc(-c2nc(/C=N/c3nccs3)c(O)o2)cc1,"inconclusive: 22.4 µM [fluorescent, side channel, partial curve]"
16,COc1ccc(CNCc2ccc3ccccc3c2)c(OC)c1,"inconclusive: 10 µM [quencher, side channel, partial curve, poor fit]"
17,Cc1cc(C(=O)NC(CC(C)C)C(=O)O)cc(C)c1[N+](=O)[O-] (centres undefined),"inconclusive: 7.08 µM [quencher, side channel, partial curve]"
18,COc1ccc(CNC(=O)C(=O)NCC2OCCCN2S(=O)(=O)c2cccs2)cc1 (centres undefined),"inconclusive: 31.6 µM [fluorescent, side channel, single point]"
19,O=c1[nH]c2ccccc2c(O)c1-c1cc2ccccc2oc1=O,inactive
20,C=C(C)c1ccccc1NC(=O)CCN1C(=O)c2ccccc2S1(=O)=O,"inconclusive: 35.5 µM [fluorescent, side channel, single point]"

row,SMILES,Potency
1,CC(=O)Nc1ccc(S(=O)(=O)Nc2nccc(/C=C/c3ccccc3F)n2)cc1,"inconclusive: 7.08 µM [inhibitor, full curve, poor fit]"
2,S=C(NCCCc1ccccc1)NC1CCCCC1,"inconclusive: 14.1 µM [fluorescent, side channel, single point]"
3,CC1CN(C2=CC(=O)CCC2)CC(C)O1 (centres undefined),"inconclusive: 28.2 µM [fluorescent, side channel, partial curve, poor fit]"
4,CCc1ccc(OCC(=O)NNC(=O)c2cc3ccccc3o2)cc1,"inconclusive: 11.2 µM [inhibitor, partial curve]"
5,COC(=O)c1c(C)oc2c1cc(NS(=O)(=O)c1ccc(C(=O)O)cc1)c1ccccc12,"inconclusive: 25.1 µM [inhibitor, partial curve]"
6,CCOc1cc(/C=C2\C(=N)N3N=C(S(C)(=O)=O)SC3=NC2=O)ccc1OCCOc1cccc(OC)c1,"inconclusive: 5.01 µM [inhibitor, full curve, poor fit]"
7,OC(CNCC1CCCO1)Cn1c2ccc(Cl)cc2c2cc(Cl)ccc21 (centres undefined),"inconclusive: 11.2 µM [quencher, side channel, partial curve]"
8,Cc1oc2c(C)c(O)ccc2c(=O)c1N1C(=O)c2ccccc2C1=O,inactive
9,COc1cccc(/C=N/NC(=O)CNC(=O)c2cccnc2)c1O,"inconclusive: 70.8 µM [fluorescent, side channel, single point]"
10,c1ccc(CN2CCN(c3nc(NCc4ccco4)c4ccccc4n3)CC2)cc1,"inconclusive: 22.4 µM [quencher, side channel, partial curve]"
11,Cc1ccc2c(c1)-c1ccccc1S(=O)(=O)N2,inactive
12,O=C(NCCc1nccs1)C1CCC(=O)N(Cc2cccc(C(F)(F)F)c2)C1 (centres undefined),"inconclusive: 7.94 µM [quencher, side channel, single point]"
13,CCC(=O)NCCc1cc2ccc(C)c(C)c2[nH]c1=O,inactive
14,Cc1ccc2[nH]c3c(=O)n(CC(=O)NCCCN(C)Cc4ccccc4)ncc3c2c1,"inconclusive: 35.5 µM [fluorescent, side channel, single point]"
15,NS(=O)(=O)c1ccc(N=Nc2c(-c3ccccc3)[nH]n(-c3nc(-c4ccccc4)cs3)c2=O)cc1,inactive
16,COc1ccc(Cn2c(-c3ccc(OC)cc3)n[nH]c2=S)cc1,inactive
17,Cc1cccc(-n2ncc(Cl)c(Cl)c2=O)c1,inactive
18,CCC(C)NC(=O)CSC1=Nc2ccccc2C2=NC(CC(=O)NCc3ccc(F)cc3)C(=O)N12 (centres undefined),inactive
19,Cc1nc(N2CCOCC2)nc(OC(C)C)c1[N+](=O)[O-],"inconclusive: 6.31 µM [fluorescent, side channel, full curve, poor fit]"

# Some of these compounds in order of length of the SMILES, falling:
row,SMILES,Potency
6,CCOc1cc(/C=C2\C(=N)N3N=C(S(C)(=O)=O)SC3=NC2=O)ccc1OCCOc1cccc(OC)c1,"inconclusive: 5.01 µM [inhibitor, full curve, poor fit]"
12,O=C(NCCc1nccs1)C1CCC(=O)N(Cc2cccc(C(F)(F)F)c2)C1 (centres undefined),"inconclusive: 7.94 µM [quencher, side channel, single point]"
3,CC1CN(C2=CC(=O)CCC2)CC(C)O1 (centres undefined),"inconclusive: 28.2 µM [fluorescent, side channel, partial curve, poor fit]"
